Reference: PubChem BioAssay AID720591 (Broad Institute, 2013)
Hit rate of the full screen: of about 1,200 compounds, about 60 (5%) were called active. Inconclusive results (about 1%) are left out.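 How the source made its calls: active means Decreasing signal and fitted IC50 at most twice the top valid tested dose; inconclusive means Bad fit or a level curve showing 30 to 70% inhibition; inactive means the rest.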 This is one part of the list. Results with a measured potency or affinity are listed apart.

Sequences of proteins named here, by UniProt entry; tags and fusion partners are left off. A change or cut given only in a name is not applied to a line headed by its entry.
UniProt Q9NXA8: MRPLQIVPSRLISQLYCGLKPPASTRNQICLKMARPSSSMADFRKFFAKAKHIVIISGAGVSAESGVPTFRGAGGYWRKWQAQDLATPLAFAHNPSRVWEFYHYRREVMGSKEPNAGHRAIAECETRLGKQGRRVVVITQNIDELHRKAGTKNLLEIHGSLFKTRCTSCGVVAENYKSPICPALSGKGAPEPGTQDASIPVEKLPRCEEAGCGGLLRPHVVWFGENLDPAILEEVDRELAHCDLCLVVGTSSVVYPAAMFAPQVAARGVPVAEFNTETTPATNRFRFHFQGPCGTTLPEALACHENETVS

target: NAD-dependent protein deacylase sirtuin-5, mitochondrial (Homo sapiens) (UniProt Q9NXA8); assay: sirtuin-5 deacylation blockers, concentration series – biochemical, fluorescence imaging, cherry-pick, set 5, dose response (AID 720591); details: Purified SirT5, succinyl-peptide AMC, trypsin-coupled fluorescence; at 15 µM (top of the series) unless noted;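 further: 0% = median of neutral control wells and -100% = median of positive control wells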

Activity change, negative = inhibition, inactive:
Cc1c(Cl)cccc1NC(=O)Cc1cccs1 1.68%, COc1ccc(S(=O)(=O)NCCc2c[nH]c3ccccc23)cc1OC 8.46%, Cc1cccc(NC(=O)Cn2nnc(-c3cccs3)n2)c1C 2.31%, Cc1cccc(C)c1NC(=O)C1=C(O)c2sccc2N(C)S1(=O)=O 30.5%, CN(C)C(=O)c1ccc(NC(=O)c2sccc2-c2ccccc2)cc1 12.8%, COc1cc2[nH]c(=O)n(CCCCCC(=O)N3CCN(c4ccccn4)CC3)c(=O)c2cc1OC -9.83%, Cc1cccc(-c2noc(CN(C)C(=O)c3ccco3)n2)c1 37.3%, Cc1ccsc1C(=O)NNC(=O)CCN1CCN(c2ccccc2)CC1 -24.2%, COc1cccc(OC)c1OCCN1CCCC1 -30.8%, COc1cccc(C2CC(c3ccc(Br)cc3)=NN2C(=O)c2ccncc2)c1OC (stereo not given) -5.7%, O=C(NC1CC1)C1CCN(C2CCN(C(=O)CC3=CCCCC3)CC2)CC1 12.9%, CC(=O)N1N=C(c2cccc(NS(C)(=O)=O)c2)CC1c1cccs1 (stereo not given) -25.8%, COc1ccc(C)cc1S(=O)(=O)n1ccnc1C 0.337%, CCOc1ccc2nc(NC(=O)CS(=O)(=O)c3ccc(C)cc3)sc2c1 -22.3%, Cc1cccc(Cn2c(N(C)Cc3ccccc3)nc3c2c(=O)[nH]c(=O)n3C)c1 -16.1%, CC1=C(C(=O)N(C(C)C)C(C)C)CC(CC(=O)NCCCN(C)C)C(=O)N1CCC1=CCCCC1 (stereo not given) 23.7%, O=C(CN1CCC(c2nc3ccccc3s2)CC1)N1CCCCC1 -27.1%, CCCn1c(SCC(=O)N2CCCC(C)C2)nnc1-c1ccccn1 (stereo not given) -27.2%, COc1ccc(C(C)=O)cc1CSc1nnc(Nc2c(C)cccc2C)s1 1.82%, CCN(CC(=O)Nc1ccc(NC(C)=O)cc1)C(=O)c1ccc(COc2ccc(C(C)(C)C)cc2)cc1 -1.48%, Cc1ccc(S(=O)(=O)c2nc(Cc3ccccc3)oc2N2CCOCC2)cc1 -13.3%, O=S1(=O)CC(N2CCC(c3ccccc3)CC2)CN1Cc1ccccc1 (stereo not given) 13.4%, CC(C)(C)OC(=O)NOCC(=O)N(CC(=O)c1ccccc1)Cc1ccccc1 -25.6%, Cc1cc(OCc2nnc(SC(C)C(=O)O)n2Cc2ccccc2)ccc1Cl (stereo not given) -29.3%, Cc1ccc(CNC(=O)C2CCCN(c3cnccn3)C2)cc1 (stereo not given) -15.6%, O=C(Nc1nccs1)c1cc2cc(Cl)ccc2oc1=O -11.3%, Cn1cc(Br)c(C(=O)Nc2c(F)c(F)c(F)c(F)c2F)n1 -22.1%, C[C@H](NC(=O)OCc1ccccc1)C(=O)NNC(=O)[C@H](C)NC(=O)OCc1ccccc1 -29.1%, CCOc1ccc2ccccc2c1C(=O)N1CCN(c2ccccc2)CC1 -3.77%, O=C(O)c1ccc2nc(-c3ccco3)c(-c3ccco3)nc2c1 -0.798%, Nc1cccc(-c2csc(-n3ncc(C(=O)O)c3C(F)(F)F)n2)c1 -36.1%, CC1CCCCN1CCCNC(=O)Cn1c(=O)c2cccn2c2ccccc21 (stereo not given) 13.2%, Cc1cc2c(c(=O)o1)C(CCC1CCCCC1)C(C#N)=C(N)O2 (stereo not given) 17%, Cc1ccc(S(=O)(=O)N(Cc2cc3ccccc3[nH]c2=O)CC2CCCO2)cc1 (stereo not given) -3.13%, COc1ccc(C2=Nn3c(nnc3-c3ccccc3F)SC2)cc1OC1CCCC1 -13%, Cc1ccc(-c2noc(CN(C)C(=O)c3ccc(Br)o3)n2)cc1 -17.4%, CCN(CC)CCNC(=O)CCN1N=C(c2ccccc2)CCC1=O -13.5%, O=C(CN1C(=O)COc2ccccc21)NNC(=O)Nc1ccccc1F -3.38%, COc1ccc(-c2ccccc2)cc1NC(=O)C1(C)CCN1C(=O)C(C)C (stereo not given) 6.61%, CCOC(=O)c1cnc2ccc(OCC)cc2c1NCCCN1CCOCC1 11.5%, Cc1ccc(C(C(=O)NC2CCCC2)N(C(=O)c2csnn2)c2ccccc2)o1 (stereo not given) 7.81%, COC(=O)C1=C(C)Nc2c(c(=O)n(C)c(=O)n2C)C1c1cccc(O)c1 (stereo not given) 9.11%, CC1CCN(C(=O)C2CCC(=O)N(Cc3ccc(Cl)cc3)C2)CC1 (stereo not given) -10.3%, C[C@H](CCC(=O)OCc1cn(CC(=O)c2ccc(O)cc2)nn1)C1CC[C@H]2[C@@H]3CC[C@@H]4C[C@H](O)CC[C@]4(C)[C@H]3C[C@H](O)[C@]12C (stereo not given in full) -22%, COc1ccccc1CNC(=O)C(NS(=O)(=O)c1cccc2nsnc12)C(C)C (stereo not given) 0.141%, CC(C)(C)n1nnnc1C(c1cccnc1)N1CCOCC1 (stereo not given) -20.8%, Cc1ccc(S(=O)(=O)Nc2ccc(Nc3ccccc3)cc2)cc1 6.43%, CCCCCCCCN1[C@@H](CC(=O)O)c2cc(C(F)(F)F)ccc2S1(=O)=O -14.3%, Cc1ccc(Oc2ccc(Cl)cc2N)cc1 -1.7%, c1ccc(NCc2cccc3ccccc23)nc1 -4.07%, COc1ccccc1S(=O)(=O)N1CCN(S(=O)(=O)c2ccccc2C#N)CC1 22%, CCCCc1c(C)nc2ccc(Br)cc2c1SCCC#N -27.5%, O=C(CCN1C(=O)C2C3C=CC(C3)C2C1=O)Oc1ccc2ccccc2c1 (stereo not given) 16%, NC(=O)c1ccc(NC(=O)CCCc2nc(-c3ccccc3Cl)no2)cc1 -28.1%, CC(C)CC1C(=O)N(Cc2cn(CC3CCCCC3)nn2)CCS(=O)(=O)N1Cc1ccc(-c2ccc(Cl)c(Cl)c2)cc1 (stereo not given) -27.8%, COc1cccc(C(=O)Nc2ccc(C(F)(F)F)n(C)c2=O)c1 -5.85%, CCOC(=O)c1c(C)[nH]c(C)c1C(=O)COC(=O)c1cc2ccccc2cc1O 7.04%, O=C(Nc1ccnn1C1CCN(C2CCCC2)CC1)c1ccccc1Cl -23.2%, Cc1cc(OCc2cc(C(=O)NC(C)c3c(C)nn(C)c3C)no2)cc(C)c1Cl (stereo not given) -14%, COc1cccc(C2Nc3ccc4ccccc4c3C3=C2C(=O)CCC3)c1O (stereo not given) -24.5%, CCc1nonc1NC(=O)c1oc2ccc(Cl)cc2c1C 9.41%, Cc1ccc(C(=O)Nc2ncc(C)s2)o1 -20%, CCN(Cc1nc(-c2cccc(C)c2)no1)C(=O)c1ccco1 -8.96%, CS(=O)(=O)N(CC(=O)N1CCCC1)c1cccc(F)c1 -28.6%, CCN(C[C@H]1N[C@@](Cc2ccccc2)(C(=O)OC)[C@H]2C(=O)N(C)C(=O)[C@@H]12)C(=O)Nc1ccc(C(F)(F)F)cc1 3.65%, Cc1cc(NC(=O)CCC(=O)N(Cc2ccco2)C(C(=O)NC2CCCCC2)c2ccccc2)no1 (stereo not given) -34.1%, COc1ccccc1-c1nnc(NC(=O)c2ccc3ncsc3c2)o1 -30.5%, CSc1nc(N)nc2c1ncn2CC(=O)NCC1CCCO1 (stereo not given) 5.49%, CNC(=O)CSc1nnc(-c2ccco2)n1-c1ccccc1 11.6%, Cc1ccc(S(=O)(=O)N(C)c2ccc(N)cc2)cc1 -14.2%, CCCc1ccc(-c2cc(NC(=O)CSc3nnc(N)s3)n(-c3ccccc3)n2)cc1 -9.91%, CN(CC(=O)N1CCN(C2CCCCC2)CC1)S(=O)(=O)c1cccc2nsnc12 -0.3%, COc1ccc(NC(=O)C2CC(=O)n3ncnc3N2)cc1 (stereo not given) 15.5%, O=C(Nc1nc(-c2ccc(F)c(F)c2)cs1)c1ccc(OCC2CCCO2)cc1 (stereo not given) -9.16%, Nc1[nH]c(C(=O)c2ccccc2)c(-c2ccc(Cl)c(F)c2)c1C(=O)NCCc1c[nH]c2ccccc12 -18%, CC(C(=O)O)N(C(=O)c1ccccc1)c1ccc(F)cc1 (stereo not given) -1.97%, Cc1ccc(S(=O)(=O)N(C)CC(=O)N2CCN(Cc3ccc4c(c3)OCO4)CC2)cc1 -31.6%, CCOC(=O)c1c(C)[nH]c(C)c1C(=O)COC(=O)c1c(OC)cccc1OC 14.1%, CC1=NCCN1S(=O)(=O)c1c(C(C)C)cc(C(C)C)cc1C(C)C -14.9%, CCCCCCn1c(=O)n2n(c1=O)[C@@H]1CN(S(=O)(=O)c3ccc(C)cc3)C[C@]1(O)[C@@H](OC(=O)NCc1ccccc1)C2 11.7%, CC1CCN(S(=O)(=O)c2ccc(C(=O)N(C)C3CCS(=O)(=O)C3)cc2)CC1 (stereo not given) -4.28%, CCN1CCN(c2nc3c(c(=O)[nH]c(=O)n3C)n2Cc2ccccc2)CC1 13.4%, CCOc1ccc(CN2CCN(C(=O)c3cccc(F)c3)CC2)cc1 8.06%, CCCCNC(=O)CC1C(=O)N(Cc2ccccc2)C(C)c2nc3ccccc3n21 (stereo not given) -23.2%, O=C(COc1ccc(Cl)cc1Cl)Nc1ccc(CN2CCCCC2)cc1 -36%, CC(C)(C)C(=O)Oc1cccc(Nc2ncnc3ccccc23)c1 -14.3%, Cc1ccc(NC(=O)COCC(=O)Nc2ccc(F)cc2)cc1 36%, COc1ccc(CN2CCN(C3CCC3)CC2CCO)c(C)c1C (stereo not given) -18.5%, Oc1ccc(-c2nccc(-c3ccc(Cl)cc3Cl)n2)cc1 -31.7%, O=C(NCC(c1ccco1)N1CCN(c2ccccc2F)CC1)C1CCCCC1 (stereo not given) 2.44%
